{"sequences": {"note": "By UniProt entry, the sequences of proteins in these tests, tags left out. Where a name states a change or a piece, a line headed by the entry shows the natural chain unless it says otherwise. Chains listed by the source or under a name are the forms on record and can include a tag or linker.", "Recombinant FH19–20 (complement factor H, CCP modules 19–20) (P08603, form named)": "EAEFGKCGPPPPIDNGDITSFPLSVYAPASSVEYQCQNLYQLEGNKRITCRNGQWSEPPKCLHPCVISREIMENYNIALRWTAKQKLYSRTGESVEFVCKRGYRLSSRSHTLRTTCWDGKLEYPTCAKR"}, "source": "paper PMC3289644", "target": "Recombinant FH19–20 (complement factor H, CCP modules 19–20) (human) (UniProt P08603)", "test": "condition: 2.4, 4.6 and 7.9 mg/ml; merged data extrapolated to infinite dilution; small-angle X-ray scattering (SAXS); protein alone in solution, 20°C, PBS pH 7.4, 1 mM DTT; 1.9, 3.8 and 7.6 mg/ml (FH18–20), 2.4, 4.6 and 7.9 mg/ml (FH19–20); MW from I(0) of merged data extrapolated to infinite dilution, and from particle volumes; both purified", "note": "Results are given in words; binding and its absence hold for the method and conditions named."}
{"substance": "Recombinant FH19–20 (complement factor H, CCP modules 19–20) (from UniProt P08603 1107-1231) (domain or fragment)", "values": [{"measurement": "binding", "result": "no binding"}]}
